Target: T1, δ-opioid receptors (Rattus norvegicus, UniProt P33533)
T1 construct: A crude membrane fraction was prepared from Wistar rat brains and spinal cords; from tissue; host or cells: Wistar rat brain (without cerebellum), crude membrane fraction
Assay: Receptor binding assay, [3H]Ile5,6-deltorphin-2 displacement in rat brain membranes

Protein sequences, listed by entry. Tags and fused reporters are not part of them. Lines headed by an entry give the natural chain unless they say otherwise; changes in a name come on top.
UniProt P33533, whole entry: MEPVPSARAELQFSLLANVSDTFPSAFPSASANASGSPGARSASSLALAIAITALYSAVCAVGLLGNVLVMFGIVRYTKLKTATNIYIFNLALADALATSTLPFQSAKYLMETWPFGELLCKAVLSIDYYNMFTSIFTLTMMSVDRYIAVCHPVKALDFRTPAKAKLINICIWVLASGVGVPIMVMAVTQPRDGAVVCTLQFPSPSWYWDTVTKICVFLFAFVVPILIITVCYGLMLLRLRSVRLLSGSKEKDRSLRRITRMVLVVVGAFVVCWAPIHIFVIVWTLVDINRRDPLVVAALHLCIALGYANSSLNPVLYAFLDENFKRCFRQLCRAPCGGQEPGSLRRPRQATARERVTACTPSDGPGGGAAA

Q: For `CC[C@H](C)[C@H](NC(=O)[C@H](CCC(=O)O)NC(=O)[C@H](Cc1ccccc1)NC(=O)[C@@H](C)NC(=O)[C@@H](N)Cc1ccc(O)cc1)C(=O)N[C@H](C(=O)NCC(N)=O)[C@@H](C)CC` [Ile^5'6-deltorphin-2, Tyr-D-Ala-Phe-Glu-Ile-Ile-Gly-NH2, reference compound], which Ki is on record?
A: 0.96 ± 0.01 nM

Reference: patent US9447108B2 (SZEGEDI TUDOMÁNYEGYETEM, priority 2013, dated 2016)
